The inconclusive results got no clear call from the source; some entries with a clear call stand among them for comparison. For some of these results: Potencies of inconclusive entries are doubtful fits and often do not repeat. The source made the active and inactive calls. Unless noted, the call rests on the fitted dose curve.
target: Beta-2 adrenergic receptor (Homo sapiens) (UniProt P07550); experiment: Adrenergic beta2 receptor (ADRB2) small molecule agonists, cell-based qHTS assay (AID 1963593); conditions: CHO-ADRB2 cells, cAMP HTRF, 30 min; at 42.5 µM (top of the series);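 further: CHO cells stably overexpressing human ADRB2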
Summary of the method: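 CHO cells stably over-expressing ADRB2 were plated overnight at 37C, then dosed with compounds plus a stimulation mix containing 100uM IBMX and 25uM Ro-20-1724 for 0.5hr at room temperature. cAMP was measured by HTRF competition, 1hr.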
On the % scale 0 is the no-effect control and ±100 the full control effect.

Sequences of proteins named here, by UniProt entry; tags and fusion partners are left off.
UniProt P14416, whole entry, looked up: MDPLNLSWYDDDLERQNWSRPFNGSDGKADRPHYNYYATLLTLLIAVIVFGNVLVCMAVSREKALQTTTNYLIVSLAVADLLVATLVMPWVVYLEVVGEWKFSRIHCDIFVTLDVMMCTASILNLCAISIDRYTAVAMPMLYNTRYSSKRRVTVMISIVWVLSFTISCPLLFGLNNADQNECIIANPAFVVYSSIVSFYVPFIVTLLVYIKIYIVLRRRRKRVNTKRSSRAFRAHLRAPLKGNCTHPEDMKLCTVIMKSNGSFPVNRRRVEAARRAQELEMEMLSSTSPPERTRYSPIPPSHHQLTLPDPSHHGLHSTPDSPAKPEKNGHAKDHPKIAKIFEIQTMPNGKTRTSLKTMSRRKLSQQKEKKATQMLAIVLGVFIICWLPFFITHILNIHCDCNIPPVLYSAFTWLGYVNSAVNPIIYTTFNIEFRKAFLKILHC

SMILES	activation
O=C1Nc2ccccc2C1(c1ccc(O)cc1)c1ccc(O)cc1	inconclusive: -10.1%
CCCCC/C(C=O)=C\c1ccccc1	inactive: 10.6%
OC[C@H]1O[C@@H](Oc2ccc(O)cc2)[C@H](O)[C@@H](O)[C@@H]1O	inactive: 3.82%

same assay, conditions: CHO-ADRB2 cells, cAMP HTRF, 30 min; at 92.4 µM (top of the series)

SMILES	activation
N[C@H](Cc1c[nH]c2ccccc12)C(=O)O	inactive: -14.1%
O=C1Nc2ccccc2C1(c1ccc(O)cc1)c1ccc(O)cc1	inconclusive: -44.4%
CCCCOC(=O)c1ccc(O)cc1	inactive: -20.7%
CCCCC/C(C=O)=C\c1ccccc1	inactive: -27%
C=C1CC[C@H](O)CC1=C/C=C1\CCC[C@]2(C)[C@@H]([C@H](C)/C=C/[C@H](C)C(C)C)CC[C@@H]12	inactive: -5.41%

target: D(2) dopamine receptor (Homo sapiens) (UniProt P14416); experiment: Dopamine D2 receptor (DRD2) small molecule agonists, cell-based qHTS assay (AID 1963594); conditions: HEK293-DRD2 cAMP HTRF, agonist mode, 30 min; activation: at 92.4 µM (top of the series) unless noted; further: nearly all actives have a fitted effect of over 35% in size; further: potency means the concentration at half of the fitted maximal effect
Summary of the method: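 HEK293 cells stably expressing DRD2 were cultured 24 h at 37 C, then given Ro20-1724 (0.1 mM final) and compounds for 10 min at room temperature. NKH477 (200nM) was then added for 30 min. cAMP was read by HTRF.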

SMILES	activation	Potency
N[C@H](Cc1c[nH]c2ccccc12)C(=O)O	inconclusive: 3.38% [at 42.5 µM]	–
O=C(O)c1ccccc1Nc1cc(Cl)ccc1C(=O)O	–	inconclusive: 4.11 µM
Cc1ccc([N+](=O)[O-])cc1Cl	–	inactive
O=C1c2c(O)cccc2Cc2cccc(O)c21	inconclusive: -13.5%	inconclusive: 3.76 µM [rising, partial curve, poor fit]
Nc1ccc(Oc2ccc(N)c(N)c2)cc1	–	inconclusive: 68.6 µM
CCCCCCC[N+](CC)(CC)CCCCc1ccc(Cl)cc1	–	inconclusive: 13.3 µM [rising, partial curve]

Reformatted: two of the compounds above
SMILES,activation,Potency
N[C@H](Cc1c[nH]c2ccccc12)C(=O)O,inconclusive: 3.38% [at 42.5 µM],–
O=C1c2c(O)cccc2Cc2cccc(O)c21,inconclusive: -13.5%,"inconclusive: 3.76 µM [rising, partial curve, poor fit]"

target: D(2) dopamine receptor (Homo sapiens) (UniProt P14416); experiment: Dopamine D2 receptor (DRD2) small molecule antagonists, cell-based qHTS assay (AID 1963595; active means well fitted inhibition curve with a large enough effect in the signal ratio in the repeat runs, with a control signal flat; inconclusive means weak or mixed curves, or effect the other way; the % refers to the signal ratio; further: potency means the concentration at half of the fitted maximal effect); conditions: HEK293-DRD2 cAMP HTRF antagonist mode; activity change, negative = inhibition: at 92.4 µM (top of the series) unless noted
Summary of the method: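 HEK293 cells stably expressing DRD2, preincubated with 0.1 mM Ro20-1724 and compounds 10 min, were stimulated with 200 nM NKH477 plus 12 nM quinpirole for 30 min at room temperature; cAMP measured by HTRF (665/620 nm).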

SMILES	activity change, negative = inhibition	Potency
CC(=O)c1ccccc1N	inconclusive: 1.11%	–
O=C1Nc2ccccc2C1(c1ccc(O)cc1)c1ccc(O)cc1	–	inactive
COc1ccc2cc1Oc1ccc(cc1)C[C@H]1c3c(cc4c(c3Oc3cc5c(cc3OC)CCN(C)[C@@H]5C2)OCO4)CCN1C	–	inconclusive: 33.5 µM [inhibitor, single point]
O=C(O)c1cc(-c2ccccc2)nc2ccccc12	–	inconclusive: 0.492 µM [rising, partial curve, poor fit]

Reference: PubChem BioAssay (Tox21)
